Measured values from patent US7772241B2, “Variolin derivatives and their use as antitumor agents” (Pharma Mar S.A., priority 2001, dated 2010).
Values joined by “and” are separate entries in the source; they are usually repeats but may differ in a detail not shown here. Identical values can stand only once. At least one read-out could not be matched to a standard name with certainty.

Test system: A-549
Experiment: Inhibition of cells growth by colorimetric (SRB) assay, A-549
Conditions: 48 hours exposure
Excerpt: The finality of these assays is to interrupt the growth of a “in vitro” tumor cell culture by means a continued exhibition of the cells to the sample to be testing.
This form of the assay employs 96 well cell culture microplates of 9 mm diameter (Faircloth, 1988; Mosmann, 1983). Most of the cell lines are obtained from American Type Culture Collection (ATCC) derived from different human cancer types.
Cells are maintained in RPMI 1640 10% FBS, supplemented with 0.1 g/l penicillin and 0.1 g/l streptomycin sulphate and then incubated at 37° C., 5% CO2 and 98% humidity. For the experiments, cells were harvested from subconfluent cultures using trypsin and resuspended in fresh medium before plating.
Cells are seeded in 96 well microtiter plates, at 5×10^3 cells per well in aliquots of 195 μl medium, and they are allowed to attach to the plate surface by growing in drug free medium for 18 hours. […] After 48 hours exposure, the antitumor effect are measured by the SRB methodology: cells are fixed by adding 50 μl of cold 50% (wt/vol) trichloroacetic acid (TCA) and incubating for 60 minutes at 4° C. […] Optical densities are read on a automated spectrophotometric plate reader at a single wavelength of 490 nm.
The values for mean +/−SD of data from triplicate wells are calculated. […]

Compound: CSc1nccc(-c2c3ccc(C)nc3n3c(N)nccc23)n1 [Compound 43]
- A-549 TGI: 6.21E−06 and 4.53E−06
